# Assay results taken from article PMC9133088.
# Protein sequences, listed by entry. Tags and fused reporters are not part of them. Lines headed by an entry give the natural chain unless they say otherwise; changes in a name come on top.
# UniProt Q9P2J5: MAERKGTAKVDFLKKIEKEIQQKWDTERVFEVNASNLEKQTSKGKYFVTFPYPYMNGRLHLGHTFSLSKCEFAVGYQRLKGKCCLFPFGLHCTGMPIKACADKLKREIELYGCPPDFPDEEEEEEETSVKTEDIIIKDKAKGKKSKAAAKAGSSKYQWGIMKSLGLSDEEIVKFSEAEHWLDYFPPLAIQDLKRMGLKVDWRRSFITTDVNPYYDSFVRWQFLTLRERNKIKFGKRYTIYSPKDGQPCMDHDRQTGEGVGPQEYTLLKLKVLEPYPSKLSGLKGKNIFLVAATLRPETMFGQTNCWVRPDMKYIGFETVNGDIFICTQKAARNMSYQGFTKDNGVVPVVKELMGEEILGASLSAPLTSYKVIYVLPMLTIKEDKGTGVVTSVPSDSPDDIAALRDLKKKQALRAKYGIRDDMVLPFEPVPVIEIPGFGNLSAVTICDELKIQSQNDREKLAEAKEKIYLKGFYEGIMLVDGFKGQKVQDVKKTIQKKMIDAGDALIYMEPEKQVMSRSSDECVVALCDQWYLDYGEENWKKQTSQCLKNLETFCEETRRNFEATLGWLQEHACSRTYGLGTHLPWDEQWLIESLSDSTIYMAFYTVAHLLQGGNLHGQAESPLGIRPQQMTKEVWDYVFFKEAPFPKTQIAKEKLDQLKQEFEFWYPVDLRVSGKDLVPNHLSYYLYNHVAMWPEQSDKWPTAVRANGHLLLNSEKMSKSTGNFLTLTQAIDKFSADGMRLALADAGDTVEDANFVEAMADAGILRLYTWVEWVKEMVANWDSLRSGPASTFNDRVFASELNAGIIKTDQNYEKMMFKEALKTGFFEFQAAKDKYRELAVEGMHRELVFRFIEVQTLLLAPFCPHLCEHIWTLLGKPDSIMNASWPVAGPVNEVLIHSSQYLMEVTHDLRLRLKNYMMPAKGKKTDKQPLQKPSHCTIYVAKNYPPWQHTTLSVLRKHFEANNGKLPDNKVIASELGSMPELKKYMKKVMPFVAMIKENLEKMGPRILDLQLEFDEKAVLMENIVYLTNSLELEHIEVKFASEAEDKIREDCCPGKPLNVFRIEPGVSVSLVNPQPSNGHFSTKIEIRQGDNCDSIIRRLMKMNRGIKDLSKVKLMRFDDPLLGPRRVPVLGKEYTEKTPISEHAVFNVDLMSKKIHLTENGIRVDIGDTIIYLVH
# UniProt Q9HB90: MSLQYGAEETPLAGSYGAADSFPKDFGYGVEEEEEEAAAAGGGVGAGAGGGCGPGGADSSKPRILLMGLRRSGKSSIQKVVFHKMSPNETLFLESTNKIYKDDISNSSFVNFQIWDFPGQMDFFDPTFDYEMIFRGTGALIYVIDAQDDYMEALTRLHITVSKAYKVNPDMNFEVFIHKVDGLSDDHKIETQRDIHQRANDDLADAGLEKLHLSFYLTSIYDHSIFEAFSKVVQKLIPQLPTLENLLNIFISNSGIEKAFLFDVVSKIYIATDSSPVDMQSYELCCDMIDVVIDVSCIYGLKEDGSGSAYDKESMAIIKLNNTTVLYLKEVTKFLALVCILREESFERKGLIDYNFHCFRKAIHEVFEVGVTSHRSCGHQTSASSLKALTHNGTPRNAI
# UniProt Q9NQL2: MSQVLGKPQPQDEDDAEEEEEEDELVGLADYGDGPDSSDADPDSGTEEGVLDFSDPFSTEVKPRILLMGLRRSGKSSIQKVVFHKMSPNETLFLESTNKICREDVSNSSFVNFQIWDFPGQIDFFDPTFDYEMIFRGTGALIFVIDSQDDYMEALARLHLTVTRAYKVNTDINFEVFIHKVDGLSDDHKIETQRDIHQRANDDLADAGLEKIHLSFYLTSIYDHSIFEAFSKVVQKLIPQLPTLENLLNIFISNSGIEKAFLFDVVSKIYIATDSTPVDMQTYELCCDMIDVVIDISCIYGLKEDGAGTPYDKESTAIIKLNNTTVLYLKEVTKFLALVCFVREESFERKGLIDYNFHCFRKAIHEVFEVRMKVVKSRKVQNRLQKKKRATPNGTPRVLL
# No constants are given. Whether binding was seen depends on the method and setting. In cells and extracts the contact can be indirect. Some results given as binding are weak or reduced against the parent protein; the word gives no strength.
# Legend:
# [1] = target: His-tagged WT LARS1, unmodified (purified from E. coli without OGT1) (human) (UniProt Q9P2J5); assay: pull-down; His-tagged LARS1 proteins from E. coli on Ni-NTA beads, incubated 1 h with Myc-RagD or HA-RagC with 200 uM ATP/2 mM leucine; 50 mM HEPES/NaOH pH 7.4, 150 mM NaCl, 5 mM MgCl2, 0.5 mM EDTA, 0.1% Triton X-100 (Fig. 4g); only the target purified
# [2] = target: His-tagged S1042A mutant LARS1 (human) (UniProt Q9P2J5); assay: as above
# [3] = target: Myc-tagged LARS1 S1042A mutant (human) (UniProt Q9P2J5); assay: co-IP; SW620 cells transfected with Myc-LARS1 constructs, starved of glucose for 4 h; anti-Myc antibody-conjugated agarose beads, immunoblot for RagD (Fig. 4h)
# [4] = target: Strep-tagged LARS1 S1042A mutant (human) (UniProt Q9P2J5); assay: pull-down; Strep-tagged LARS1 expressed in cells, cells starved of glucose for 4 h (absence of glucose); precipitated with Strep beads, immunoblot for ULK1 and RagD (Supplementary Fig. 5d)
substance,measurement,setting,value
HA-tagged RagC (WT) (from UniProt Q9HB90 1-399) (other; other documents disagree on this pair),binding,[1],no binding
Myc-tagged RagD (WT) (from UniProt Q9NQL2 1-400),binding,[2],binds
"RagD GTPase, endogenous (from UniProt Q9NQL2 1-400)",binding,[3],binds
same,binding,[4],binds
